Experimental data published in article doi:10.1101/2021.02.07.430097.
These are yes or no findings as the source states them, for the method shown. In cells and extracts the contact can be indirect. Here binding means that the protein was enriched with, or labelled near, the bait; the list need not be complete. For some of these results: No binding means not detected with the bait. For some of these results: Where a sequence is shown, tags or fusion partners need not be part of it.

Chains of the proteins cited; added tags and fusions are not shown. Lines headed by an entry give the natural chain unless they say otherwise; changes in a name come on top.
UniProt Q9UT61: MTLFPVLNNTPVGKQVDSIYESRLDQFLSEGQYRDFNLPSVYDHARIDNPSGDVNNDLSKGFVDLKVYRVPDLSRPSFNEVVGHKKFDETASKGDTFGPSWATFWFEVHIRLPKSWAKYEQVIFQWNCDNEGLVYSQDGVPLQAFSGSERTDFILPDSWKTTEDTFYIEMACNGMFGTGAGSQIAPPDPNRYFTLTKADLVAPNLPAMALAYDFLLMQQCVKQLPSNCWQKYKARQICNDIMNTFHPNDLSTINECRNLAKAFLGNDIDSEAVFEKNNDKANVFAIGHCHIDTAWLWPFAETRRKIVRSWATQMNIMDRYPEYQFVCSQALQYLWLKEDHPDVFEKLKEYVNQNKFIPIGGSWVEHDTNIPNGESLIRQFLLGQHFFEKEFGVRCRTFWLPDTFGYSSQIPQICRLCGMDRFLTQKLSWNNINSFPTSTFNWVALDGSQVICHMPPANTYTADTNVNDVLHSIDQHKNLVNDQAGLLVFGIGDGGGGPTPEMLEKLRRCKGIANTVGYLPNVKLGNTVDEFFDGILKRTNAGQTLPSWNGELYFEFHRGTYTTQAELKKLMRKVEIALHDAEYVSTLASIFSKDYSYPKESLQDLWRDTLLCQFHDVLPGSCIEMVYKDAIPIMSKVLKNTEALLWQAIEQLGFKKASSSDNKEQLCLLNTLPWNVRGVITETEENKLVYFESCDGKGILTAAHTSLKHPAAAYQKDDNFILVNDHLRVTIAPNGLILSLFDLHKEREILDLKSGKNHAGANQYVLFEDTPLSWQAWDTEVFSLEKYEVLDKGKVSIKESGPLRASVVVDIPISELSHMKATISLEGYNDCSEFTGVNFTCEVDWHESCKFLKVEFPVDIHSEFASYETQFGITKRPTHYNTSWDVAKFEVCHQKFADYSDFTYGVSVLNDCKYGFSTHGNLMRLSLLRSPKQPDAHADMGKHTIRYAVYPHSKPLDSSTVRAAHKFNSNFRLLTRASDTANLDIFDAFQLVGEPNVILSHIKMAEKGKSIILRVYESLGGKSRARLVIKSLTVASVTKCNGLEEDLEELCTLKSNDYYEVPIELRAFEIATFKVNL

T1: Lap2-YFP-FLAG-His6 (S. pombe) (UniProt O94544)
T1 sequence: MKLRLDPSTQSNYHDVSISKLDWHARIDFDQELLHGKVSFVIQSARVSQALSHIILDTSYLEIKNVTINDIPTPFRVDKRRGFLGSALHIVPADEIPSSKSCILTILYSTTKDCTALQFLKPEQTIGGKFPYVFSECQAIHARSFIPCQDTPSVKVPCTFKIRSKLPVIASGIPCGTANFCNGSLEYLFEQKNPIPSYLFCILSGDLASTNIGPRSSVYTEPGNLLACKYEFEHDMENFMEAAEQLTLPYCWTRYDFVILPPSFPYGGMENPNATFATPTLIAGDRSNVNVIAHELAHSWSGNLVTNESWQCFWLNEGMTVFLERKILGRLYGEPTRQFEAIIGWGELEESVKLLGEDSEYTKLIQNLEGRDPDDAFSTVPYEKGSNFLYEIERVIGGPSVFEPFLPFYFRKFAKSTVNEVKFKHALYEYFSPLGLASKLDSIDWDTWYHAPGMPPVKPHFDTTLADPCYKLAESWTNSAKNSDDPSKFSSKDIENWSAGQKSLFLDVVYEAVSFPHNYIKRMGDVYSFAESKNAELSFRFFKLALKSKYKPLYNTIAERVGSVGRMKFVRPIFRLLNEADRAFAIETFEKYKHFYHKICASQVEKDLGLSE

T2: Nbr1-YFP-FLAG-His6 (S. pombe) (UniProt Q9P792)
T2 sequence: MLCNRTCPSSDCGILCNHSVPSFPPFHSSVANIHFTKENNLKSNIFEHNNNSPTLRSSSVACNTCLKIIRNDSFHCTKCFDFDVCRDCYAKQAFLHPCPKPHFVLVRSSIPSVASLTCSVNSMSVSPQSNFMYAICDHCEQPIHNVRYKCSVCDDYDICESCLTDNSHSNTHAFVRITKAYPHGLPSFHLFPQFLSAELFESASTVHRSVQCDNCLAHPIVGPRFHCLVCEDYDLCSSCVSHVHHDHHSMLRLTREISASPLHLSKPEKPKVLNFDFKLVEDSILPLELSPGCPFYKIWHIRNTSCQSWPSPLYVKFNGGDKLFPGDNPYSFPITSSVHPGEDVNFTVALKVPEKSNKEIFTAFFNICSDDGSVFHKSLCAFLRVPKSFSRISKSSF


Key:
Assay in all cases: affinity purification with mass spectrometry
[1] = biological target: T1, Lap2-YFP-FLAG-His6 (S. pombe)
[2] = biological target: T2, Nbr1-YFP-FLAG-His6 (S. pombe)
Ape2-Venus (S. pombe) = biological target: Ape2-Venus (S. pombe)

| binding [1] | binding [2] | binding (Ape2-Venus (S. pombe)) | Molecule |
| --- | --- | --- | --- |
| binds | binds |  | Ape2 (endogenous) (S. pombe (endogenous in S. pombe)) (enzyme) |
| no binding | binds |  | Ape4 (endogenous) (S. pombe (endogenous in S. pombe)) (enzyme) |
| no binding | binds |  | Ams1 (endogenous) (from UniProt Q9UT61) (enzyme) |
|  | binds | binds | Lap2 (endogenous) (enzyme, UniProt O94544 1-612) MKLRLDPSTQSNYHDVSISKLDWHARIDFDQELLHGKVSFVIQSARVSQALSHIILDTSYLEIKNVTINDIPTPFRVDKRRGFLGSALHIVPADEIPSSKSCILTILYSTTKDCTALQFLKPEQTIGGKFPYVFSECQAIHARSFIPCQDTPSVKVPCTFKIRSKLPVIASGIPCGTANFCNGSLEYLFEQKNPIPSYLFCILSGDLASTNIGPRSSVYTEPGNLLACKYEFEHDMENFMEAAEQLTLPYCWTRYDFVILPPSFPYGGMENPNATFATPTLIAGDRSNVNVIAHELAHSWSGNLVTNESWQCFWLNEGMTVFLERKILGRLYGEPTRQFEAIIGWGELEESVKLLGEDSEYTKLIQNLEGRDPDDAFSTVPYEKGSNFLYEIERVIGGPSVFEPFLPFYFRKFAKSTVNEVKFKHALYEYFSPLGLASKLDSIDWDTWYHAPGMPPVKPHFDTTLADPCYKLAESWTNSAKNSDDPSKFSSKDIENWSAGQKSLFLDVVYEAVSFPHNYIKRMGDVYSFAESKNAELSFRFFKLALKSKYKPLYNTIAERVGSVGRMKFVRPIFRLLNEADRAFAIETFEKYKHFYHKICASQVEKDLGLSE |
| binds |  | binds | Nbr1 (endogenous) (protein, UniProt Q9P792 1-397) MLCNRTCPSSDCGILCNHSVPSFPPFHSSVANIHFTKENNLKSNIFEHNNNSPTLRSSSVACNTCLKIIRNDSFHCTKCFDFDVCRDCYAKQAFLHPCPKPHFVLVRSSIPSVASLTCSVNSMSVSPQSNFMYAICDHCEQPIHNVRYKCSVCDDYDICESCLTDNSHSNTHAFVRITKAYPHGLPSFHLFPQFLSAELFESASTVHRSVQCDNCLAHPIVGPRFHCLVCEDYDLCSSCVSHVHHDHHSMLRLTREISASPLHLSKPEKPKVLNFDFKLVEDSILPLELSPGCPFYKIWHIRNTSCQSWPSPLYVKFNGGDKLFPGDNPYSFPITSSVHPGEDVNFTVALKVPEKSNKEIFTAFFNICSDDGSVFHKSLCAFLRVPKSFSRISKSSF |
